Some of the results follow. Further columns of the screen follow, without active or inactive calls. Most of these compounds were active or inconclusive in the main read-out, so they are no random draw. Potencies come from curve fits of mixed quality, noted in brackets.

The nature of this test: IkB Signaling. The settings on record: ABC-DLBCL IkBa-CBG/CBR dual luciferase ratio (green luciferase fused to IkBa over red control in OCI-Ly3 lymphoma cells), 4 h; measured here: control luc red channel unless noted. The method in brief:
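Curves were fitted separately to fusion (green), unfused (red) and ratio luminescence, then classed by r2, magnitude and activity. Cells: OCI-Ly3, 4 h compound plus doxycycline at 37C; 10 uM MG-132 defined full response.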
Regarding `Cc1nc(CC(=O)Nc2nc(-c3ccccc3)cs2)cs1`, the half-maximal activity concentration (AC50) is 31.6 µM [falling, partial curve].

Regarding `CCCOC(=O)c1ccc(Oc2c(-c3ccc(OCC)cc3O)n[nH]c2C)cc1`, the half-maximal activity concentration (AC50) is 15.8 µM [falling, partial curve].

Consider `CN(Cc1ccccc1)S(=O)(=O)c1nnc(NC(=O)c2ccccc2Cl)s1`, for which the AC50 was 12.6 µM [falling, partial curve].

As to `O=C(Nc1ccc(Cl)cc1C(=O)O)c1ccc2c(c1)C(=O)N(Cc1ccco1)C2=O`, the half-maximal activity concentration (AC50) is 2 µM [falling, full curve].

With `Cc1ccc(-n2nnnc2SCC(=O)Nc2cccc(NC(=O)c3ccco3)c2)cc1C`, the AC50 was 12.6 µM [falling, partial curve].

For `CC1CCN(S(=O)(=O)c2ccc3c(ccc(=O)n3CC(=O)NCc3ccc(Cl)cc3)c2)CC1`, the concentration at half-maximal activity (AC50) is 0.316 µM [falling, full curve].

For `CCOc1ccc(Nc2nc3c(S(=O)(=O)c4ccc(CC)cc4)nnn3c3ccc(Cl)cc23)cc1`, the half-maximal activity concentration (AC50) is 3.98 µM [rising, full curve].

As for `CC1=C(/C=C/C(C)=C/C=C/C(C)=C/C(=O)Nc2ccc(O)cc2)C(C)(C)CCC1`, the half-maximal activity concentration (AC50) was 1.26 µM [rising, full curve, poor fit] [measured here: IkB-luc green channel].

Take `CC(=O)N1CCc2cc(Br)cc(S(=O)(=O)NCCc3ccc(Cl)cc3)c21`: the AC50 is 15.8 µM [falling, partial curve].

As for `CC(=O)c1cccc(NC(=O)CCc2nc3cccnc3n2Cc2cccs2)c1`, the AC50 was 39.8 µM [falling, single point].

With `COc1ccc(CCNc2nc3ccc(C)cc3n3cnnc23)cc1OC`, the AC50 was 3.16 µM [rising, partial curve].

In the case of `O=C(c1cccn1-c1nnc(N2CCCCC2)s1)N1CCN(c2ccc(Cl)cc2)CC1`, the AC50 is 25.1 µM [falling, partial curve].

For the compound `Cc1occc1-c1nnc(SCC(=O)Nc2ccccc2)n1C(C)c1ccccc1` (stereo not given), the half-maximal activity concentration (AC50) is 39.8 µM [falling, single point].

As for `CCc1c(C)nc2ncnn2c1N1CCCC(C(=O)NCc2ccc3c(c2)OCO3)C1` (stereo not given), the concentration at half-maximal activity (AC50) was 39.8 µM [falling, single point].

On to `COc1ccc(Cl)cc1N=C1NC(=O)CC(C(=O)Nc2ccccc2C(F)(F)F)S1` (stereo not given), for which the half-maximal activity concentration (AC50) was 12.6 µM [falling, partial curve].

On to `COC(=O)c1ccc(OC)c(CSc2nnc(COc3ccc(Cl)cc3)o2)c1`, for which the AC50 was 12.6 µM [falling, partial curve].

For the compound `COc1ccc(S(=O)(=O)N(CC(=O)Nc2cc(C)cc(C)c2)c2ccc(Cl)cc2)cc1`, the AC50 was 2.51 µM [falling, full curve, poor fit].

In the case of `CCn1c(C(=O)N2CCC(C(=O)N3CCN(c4ccc(OC)cc4)CC3)CC2)cc2sccc21`, the AC50 was 31.6 µM [falling, single point].

Regarding `CCc1ccccc1N1CC(c2nc3ccccc3n2CCOc2ccc(Cl)c(C)c2)CC1=O` (stereo not given), the half-maximal activity concentration (AC50) was 15.8 µM [falling, partial curve].

As for `CN(C)c1ccc(C(=O)Nc2c(C(=O)NC(C)(C)C)oc3ccccc23)cc1`, the concentration at half-maximal activity (AC50) was 25.1 µM [falling, single point].

Consider `CC1=C(c2ccc(Cl)cc2)S(=O)(=O)N=C1N1CCN(c2cc(C)ccc2C)CC1`, for which the half-maximal activity concentration (AC50) is 6.31 µM [rising, partial curve].

Take `CC(=O)Nc1ccc(Cc2ccc3[nH]c(=O)cc(C)c3c2)cc1`: the AC50 is 3.98 µM [rising, partial curve] [measured here: IkB-luc green channel].

Regarding `Cc1cc(C)cc(-n2c(SCC(=O)Nc3ccc4c(c3)OCO4)nc3c([nH]c4ccccc43)c2=O)c1`, the concentration at half-maximal activity (AC50) was 39.8 µM [rising, single point].

`CCCN1CCCc2cc(CN(CCCN3CCOCC3)C(=O)Nc3ccc(Cl)c(Cl)c3)ccc21`: the concentration at half-maximal activity (AC50) was 7.94 µM [falling, partial curve].

Regarding `COc1ccc2sc(N(Cc3cccnc3)C(=O)CCc3ccccc3)nc2c1`, the AC50 was 2.51 µM [rising, partial curve] [measured here: IkB-luc green channel].

`CCOC(=O)c1c(S(=O)(=O)N2CCC(C(=O)NCc3ccccc3Cl)CC2)c(C)n(C)c1C`: the concentration at half-maximal activity (AC50) is 0.2 µM [falling, full curve, poor fit].

For `COc1cccc(CNC(=O)c2ccc3c(c2)sc2nc(-c4cccc(OC)c4)cn23)c1`, the AC50 is 39.8 µM [falling, partial curve].

For `COCCn1ccc2c(OCC(=O)Nc3cccc(C(F)(F)F)c3)cccc2c1=O`, the half-maximal activity concentration (AC50) is 39.8 µM [falling, single point].

Consider `Cc1cccc(N2CCN(C(=O)c3cnn(-c4ccccc4)c3C3CCN(C(=O)OC(C)(C)C)CC3)CC2)c1C`, for which the half-maximal activity concentration (AC50) is 15.8 µM [falling, partial curve].

`COc1ccccc1CNC(=O)C1CCN(S(=O)(=O)Cc2ccccc2)CC1`: the AC50 was 6.31 µM [rising, single point].

As for `CCC(=O)N1c2ccccc2CC1C(=O)NCCN1CCN(c2cc(Cl)ccc2C)CC1` (stereo not given), the AC50 was 12.6 µM [falling, partial curve].

Consider `Cc1cc(C)cc(OCC(=O)N2CCC(c3nc4ccccc4o3)CC2)c1`, for which the concentration at half-maximal activity (AC50) is 20 µM [falling, partial curve].

As for `CCOc1ccc(NC(=O)c2c(NCc3cc(OC)c(OC)cc3OC)sc3c2CCCC3)cc1`, the AC50 was 31.6 µM [falling, single point].

As for `N#C/C(=C\c1ccc(F)cc1)c1nc(-c2ccc(-c3ccccc3)cc2)cs1`, the AC50 is 0.316 µM [falling, full curve].

On to `COc1cccc(CC(=O)Nc2c(C(=O)N3CCN(c4ccccc4F)CC3)oc3ccccc23)c1`, for which the AC50 was 12.6 µM [falling, partial curve].

For `CCCC1=Nc2cc(C(=O)NC3CCCCC3)ccc2Sc2ccc(C)cc21`, the half-maximal activity concentration (AC50) was 0.794 µM [rising, full curve].

In the case of `COc1ccc(-c2cc(C(F)(F)F)n3nc(C(=O)NCc4ccco4)cc3n2)cc1`, the concentration at half-maximal activity (AC50) is 25.1 µM [falling, single point].

`COc1cc(C2CC(=O)c3c([nH]c(C(=O)OC4CCCC4)c3C)C2)cc(OC)c1OC` (stereo not given): the AC50 is 12.6 µM [falling, partial curve].

Consider `Clc1ccc(-c2cn3cc(Cc4ccccc4)sc3n2)cc1`, for which the AC50 is 6.31 µM [falling, partial curve].

Take `CCOc1ccc(CCNC(=O)c2ccc(CSCc3ccccc3C)o2)cc1OCC`: the AC50 is 15.8 µM [falling, partial curve].

`O=C(CSc1nc(=O)n(Cc2ccncc2)c2c1CCC2)Nc1cccc(F)c1`: the AC50 is 10 µM [falling, partial curve].

With `CCN(C(=O)C(NS(=O)(=O)c1ccc(Br)s1)c1ccccc1)c1ccc(C)c(C)c1` (stereo not given), the AC50 is 25.1 µM [falling, single point].

Turning to `CC1(C)CC(=O)c2cc(-c3nc(-c4ccc(F)cc4)cs3)c(=O)[nH]c2C1`, the AC50 is 25.1 µM [rising, partial curve, poor fit].

Consider `CCc1cccc(NC(=O)C(Cc2ccccc2)NS(=O)(=O)c2cccs2)c1` (stereo not given), for which the concentration at half-maximal activity (AC50) is 25.1 µM [falling, single point].

Take `COc1ccc(-n2c(=O)c3c4c(sc3n(Cc3ccccc3C)c2=O)CCCC4)c(OC)c1`: the AC50 is 3.98 µM [falling, partial curve].

Take `CCN1c2ccccc2-c2nc3ccccc3n2C1c1ccncc1` (stereo not given): the AC50 is 12.6 µM [falling, partial curve].

With `CC(=O)c1ccc(Nc2cc(C)nc3nc(Cc4ccccc4)nn23)cc1`, the AC50 was 12.6 µM [falling, partial curve].

Consider `CCOc1ccc(C(=O)NCCc2csc(-c3cccc(C)c3)n2)cc1`, for which the AC50 is 7.94 µM [falling, full curve, poor fit].

For the compound `CC(C)CC(=O)Nc1nnc(S(=O)(=O)N2c3ccccc3CC2C)s1` (stereo not given), the AC50 is 15.8 µM [falling, single point].

`Cc1ccc(C)c(N2CCN(CCCNC(=O)c3ccc4nc(N5CCC(C)CC5)sc4c3)CC2)c1`: the concentration at half-maximal activity (AC50) is 0.501 µM [falling, full curve].

In the case of `COc1ccccc1NC(=O)CN1CCN(CC(=O)Nc2ccc3c(c2)OCCO3)CC1`, the AC50 is 12.6 µM [falling, partial curve].

With `CC1CC(C)(C)Nc2ccc(OC(=O)c3ccco3)cc21` (stereo not given), the half-maximal activity concentration (AC50) is 6.31 µM [falling, full curve].

As for `CCc1c(C)c2cc3c(c(C)c2oc1=O)OCN(CCc1ccc(OC)c(OC)c1)C3`, the AC50 is 25.1 µM [falling, single point].

Turning to `COc1ccc(N2CCN(C(=O)c3ccc(NS(=O)(=O)c4ccc(F)cc4)cc3)CC2)cc1`, the concentration at half-maximal activity (AC50) is 25.1 µM [falling, partial curve].

For `COC(=O)C1=CN(C(C)C)C=C(C(=O)OC)C1c1cc2c(cc1Br)OCO2`, the AC50 is 6.31 µM [falling, partial curve].

As to `COc1ccc2c(c1)c1c(c(=O)n(-c3cccc(C)c3)c(=O)n1CC(=O)NCCC1=CCCCC1)n2C`, the concentration at half-maximal activity (AC50) was 15.8 µM [falling, partial curve].

Turning to `COc1ccccc1Nc1nc(-c2ccccc2)c(CC(=O)O)s1`, the AC50 is 31.6 µM [falling, partial curve].

In the case of `O=c1oc2c(CN3CCCCCC3)c(O)ccc2cc1-c1nc2ccccc2[nH]1`, the AC50 was 31.6 µM [falling, partial curve].

As for `O=c1c2cccnc2n(Cc2cccc(F)c2)c(=O)n1Cc1ccc(F)cc1`, the half-maximal activity concentration (AC50) was 31.6 µM [falling, single point].

In the case of `Cc1ccccc1OCC(=O)Nc1ccc2nc(SCC(=O)N3CCCC3)sc2c1`, the AC50 is 20 µM [falling, partial curve].

Usually AC50 stands for the midpoint of the concentration-response curve, whichever way the signal moves.

These data come from PubChem BioAssay AID445 (National Center for Advancing Translational Sciences (NCATS), 2006).
